# According to publication doi:10.1101/2025.01.23.634435:
# The chains behind the UniProt entries cited, without tags or fusion partners.
# UniProt Q01094: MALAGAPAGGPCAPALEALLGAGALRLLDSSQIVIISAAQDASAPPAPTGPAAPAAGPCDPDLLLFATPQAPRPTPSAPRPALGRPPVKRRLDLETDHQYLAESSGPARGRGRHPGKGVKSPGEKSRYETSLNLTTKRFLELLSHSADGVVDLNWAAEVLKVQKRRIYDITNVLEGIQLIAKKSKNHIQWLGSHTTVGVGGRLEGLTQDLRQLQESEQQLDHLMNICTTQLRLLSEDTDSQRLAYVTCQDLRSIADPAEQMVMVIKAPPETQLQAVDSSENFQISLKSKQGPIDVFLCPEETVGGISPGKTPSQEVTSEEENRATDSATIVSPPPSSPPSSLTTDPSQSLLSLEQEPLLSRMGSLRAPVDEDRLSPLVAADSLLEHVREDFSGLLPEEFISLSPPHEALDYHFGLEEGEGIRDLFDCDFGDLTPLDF
# UniProt P03206: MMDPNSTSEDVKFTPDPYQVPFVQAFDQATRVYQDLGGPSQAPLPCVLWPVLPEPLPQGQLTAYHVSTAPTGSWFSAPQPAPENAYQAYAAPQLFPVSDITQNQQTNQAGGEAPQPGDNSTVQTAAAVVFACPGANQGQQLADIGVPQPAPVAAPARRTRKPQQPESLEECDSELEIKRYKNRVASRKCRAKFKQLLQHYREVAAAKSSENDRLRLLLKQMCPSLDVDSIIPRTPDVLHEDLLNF
# No constants are given. Whether binding was seen depends on the method and setting. Binding seen in cells or lysates may run through a third protein.
# Target: flag-tagged E2F1 (UniProt Q01094)
# Test: co-IP
substance,measurement,value
myc-tagged BZLF1 (from UniProt P03206 1-245),binding,no binding
